Laboratory results: PubChem BioAssay AID1671195 (Yale University, 2021)

Screen: 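Regulators of LDL receptor activity judged by labelled LDL uptake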 (primary screen)
Cells: human Huh7 hepatoma cells
Knock-down reagent: siRNA pool against human genes, 18 nM
Timing: about 2 to 2.5 days of knockdown, then 8 h LDL uptake
Treatment: DiI-labelled LDL at 30 µg/ml for 8 h, in lipoprotein-deficient serum medium
Measurement: 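Fluorescent LDL signal imaged in cells, scaled to the plate median, robust z-score for each replicate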
Reading the numbers: robust z-score: higher = more LDL uptake after knockdown
Hit rule: 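Active when two or more replicates show a robust z-score above 2 or below -2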
In all, the deposit lists about 22,000 reagents; below is a random part of them. About 1,510 of them (6.9%) were called active. 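Active includes knockdowns raising or lowering LDL uptake; positive z-scores mean more uptake, negative mean less.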 The numbers tell different reagents against one gene apart.

| gene | reagent | robust z-score, replicate 1 | robust z-score, replicate 2 | robust z-score, replicate 3 | activity call |
| --- | --- | --- | --- | --- | --- |
| LMNA | 1 | 0.236 | -0.153 | -0.515 | inactive |
| CCK | 1 | 2.69 | 3.11 | 0.724 | active |
| AGBL4 | 1 | -0.627 | -0.311 | 0.575 | inactive |
| LOC400705 (retired record) | 1 | 1.42 | 2.03 | 1.94 | active |
| KLHDC7B | 1 | -0.627 | 0.62 | 0.143 | inactive |
| AMY2A | 1 | -1.53 | -1.3 | -1.21 | inactive |
| LOC440932 (retired record) | 1 | -0.177 | -1.1 | -0.407 | inactive |
| TAF1L | 1 | -0.791 | -0.721 | -0.637 | inactive |
| LOC440996 (retired record) | 1 | 0.289 | 1.25 | 0.903 | inactive |
| SELENOT | 1 | 0.748 | 1.5 | 1.93 | inactive |
| SLC25A13 | 1 | -1.23 | -0.82 | -0.705 | inactive |
| TPT1P8 | 1 | -1.11 | -1.02 | -1.04 | inactive |
| LOC392582 (retired record) | 1 | -1.08 | -0.131 | -0.399 | inactive |
| GSTT4 | 1 | -0.269 | -0.305 | -1.06 | inactive |
| EIF3F | 1 | 0.635 | 2.98 | 0.595 | inactive |
| TTC6 | 1 | 0.317 | 0.925 | 0.916 | inactive |
| TTC6 | 2 | -0.516 | -0.674 | -0.551 | inactive |
| LOC388129 (retired record) | 1 | 0.481 | 1.1 | 0.969 | inactive |
| PGA5 | 1 | -1.41 | -0.639 | -0.664 | inactive |
| USE1 | 1 | -1.98 | -1.09 | -1.18 | inactive |
| LOC441599 (retired record) | 1 | -0.686 | 0.335 | 0.272 | inactive |
| CHD7 | 1 | 0.184 | 0.0828 | 0.304 | inactive |
| APBB3 | 1 | -0.00452 | 1.17 | 0.489 | inactive |
| SF3B5 | 1 | -0.522 | -1.05 | -0.691 | inactive |
| H3C11 | 1 | 2.9 | 1.08 | 2.99 | active |
| ALDH1A3 | 1 | -0.00549 | 0.612 | 0.635 | inactive |
| ALDH1A3 | 2 | 0.487 | -0.253 | 0.804 | inactive |
| H3C7 | 1 | 0.682 | -0.558 | 0.271 | inactive |
| EHMT2 | 1 | 0.408 | -0.13 | 0.0769 | inactive |
| ZNF670 | 1 | 0.175 | 0.256 | -0.0257 | inactive |
| L1TD1 | 1 | 0.261 | 0.185 | 0.0429 | inactive |
| FKBP1A | 1 | 0.0486 | -0.00617 | 0.187 | inactive |
| SRSF12 | 1 | -0.65 | -0.632 | -1.17 | inactive |
| CNTNAP2 | 1 | 0.409 | 1.19 | 0.232 | inactive |
| IGSF1 | 1 | -0.94 | -0.24 | 0.0137 | inactive |
| BORA | 1 | 0.271 | -0.149 | -0.415 | inactive |
| FOXA3 | 1 | 0.817 | 1.02 | 0.47 | inactive |
| SHISA8 | 1 | -0.0454 | -0.026 | 0.237 | inactive |
| LOC401715 (retired record) | 1 | -1.58 | -1.76 | -1.84 | inactive |
| GYG1 | 1 | 1.2 | 0.796 | 0.867 | inactive |
| LINC00597 | 1 | -0.782 | -0.42 | -0.525 | inactive |
| RPS6KL1 | 1 | -0.134 | -0.0568 | -0.187 | inactive |
| LOC440938 (retired record) | 1 | -0.0303 | 0.314 | -0.0337 | inactive |
| IFNA5 | 1 | 0.224 | 0.133 | 0.864 | inactive |
| OR5H6 | 1 | -0.149 | 0.121 | 0.5 | inactive |
| ELOVL6 | 1 | 0.419 | -0.574 | -0.102 | inactive |
| GCDH | 1 | 0.704 | 0.202 | 0.933 | inactive |
| ZNF69 | 1 | 0.448 | 1.86 | 0.929 | inactive |
| CACNA1C | 1 | 0.759 | -0.48 | 0.391 | inactive |
| SGPP2 | 1 | -0.888 | -1.49 | -2.03 | inactive |
| COMMD2 | 1 | 0.852 | -0.588 | -0.85 | inactive |
| TMEM51 | 1 | -1.61 | -2.23 | -1.93 | inactive |
| LOC442011 (retired record) | 1 | -0.0522 | 0.0451 | 0.294 | inactive |
| SIRAL2 | 1 | -0.718 | 1.32 | -0.456 | inactive |
| TAMALIN | 1 | -0.081 | 0.425 | -0.158 | inactive |
| SPC25 | 1 | -0.862 | -0.249 | -0.0937 | inactive |
| PLS1 | 1 | 0.386 | 1.3 | 0.386 | inactive |
| AVEN | 1 | -0.391 | -0.525 | -0.498 | inactive |
| PPP1R14A | 1 | 4.63 | 5.27 | 4.77 | active |
| STPG1 | 1 | -2.07 | -1.95 | -2.29 | active |
| TAFA5-AS1 | 1 | 2.91 | 2.83 | 1.91 | active |
| COX7A2 | 1 | -0.601 | -0.387 | -0.842 | inactive |
| REL-DT | 1 | 1.27 | 1.67 | 2.22 | inactive |
| DTX2 | 1 | -0.705 | -0.401 | -0.0325 | inactive |
| ARL13A | 1 | -0.588 | -0.2 | 0.0364 | inactive |
| FAM149A | 1 | -0.366 | 0.405 | -1.03 | inactive |
| TRAT1 | 1 | -0.618 | -0.328 | -0.673 | inactive |
| NUDT12 | 1 | -0.374 | 0.893 | -0.0338 | inactive |
| NDUFA7 | 1 | 0.747 | -0.773 | -0.707 | inactive |
| MPHOSPH10 | 1 | -0.624 | -0.737 | -0.813 | inactive |
| MMD2 | 1 | 0.97 | 2.34 | 1.53 | inactive |
| MFF | 1 | -0.0547 | 0.197 | 0.446 | inactive |
| LOC387824 (retired record) | 1 | -0.0342 | 0.185 | 0.226 | inactive |
| SLC19A4P | 1 | 0.867 | 1.15 | 0.142 | inactive |
| TCEANC | 1 | -0.725 | -0.722 | -1.26 | inactive |
| SH3TC1 | 1 | 0.349 | 0.139 | 1.49 | inactive |
| MAZ | 1 | 0.0699 | 0.361 | -0.0955 | inactive |
| WHRN | 1 | -1.4 | -1.31 | -0.298 | inactive |
| MYO15A | 1 | 0.16 | 1.05 | -0.168 | inactive |
| MMP17 | 1 | 0.798 | 1.22 | 0.846 | inactive |
| CORO1C | 1 | 2.2 | -0.959 | -0.12 | inactive |
| CYP2C8 | 1 | 0.226 | 0.104 | 0.188 | inactive |
| SACS | 1 | -0.542 | -0.742 | -0.802 | inactive |
| NR3C1 | 1 | -0.38 | -0.316 | -0.0867 | inactive |
| ZNF804A | 1 | -0.675 | -0.928 | -0.856 | inactive |
| XBP1 | 1 | 0.951 | 1.14 | -0.207 | inactive |
| PTCHD3 | 1 | 2.55 | 2.86 | 1.83 | active |
